Article PMC3985639, “A widespread bacteriophage abortive infection system functions through a Type IV toxin–antitoxin mechanism” (Nucleic Acids Research, 2014)
Results are given in words; binding and its absence hold for the method and conditions named. In cells and extracts the contact can be indirect. Some binding calls cover weakened binding; strength is not graded here.

Target: Cas6f (previously Csy4) from Pectobacterium atrosepticum (P. atrosepticum) (UniProt Q6D0W5)
Test: co-IP; both proteins co-expressed in E. coli; soluble fraction on anti-FLAG agarose overnight at 4°C; washed five times with 0.05 M Tris-HCl pH 7.4, 0.3 M NaCl; eluted with FLAG peptide; western blot for FLAG and His6; FLAG-tagged protein as bait, His6-tagged protein as prey

binding: binds
B1: Cas6f (previously Csy4) from Pectobacterium atrosepticum (protein, UniProt Q6D0W5 1-184)
chain: MDHYIDIRVQPDPEFTASQLLNALFAKLHRVLGQLANGKIGISFPEVGKTLGECLRLHGTEDALSTLEKTSWLKGLRDYTQVSECKVVPNGVKFRTVRRVQLKSSAERLRRRSVSKGWLTAAEAAARIPDAVEKRSALPFVQIKSLSNGQMFFVFVEHGPLQNAPTAGRFSSYGLSTEATVPWF
